No constants are given. Whether binding was seen depends on the method and setting. Binding seen in cells or lysates may run through a third protein. Some results given as binding are weak or reduced against the parent protein; the word gives no strength. For some assays here: Sequences can lack the tags named with a protein.

Sequences of proteins named here, by UniProt entry; tags and fusion partners are left off.
UniProt Q9GZV5: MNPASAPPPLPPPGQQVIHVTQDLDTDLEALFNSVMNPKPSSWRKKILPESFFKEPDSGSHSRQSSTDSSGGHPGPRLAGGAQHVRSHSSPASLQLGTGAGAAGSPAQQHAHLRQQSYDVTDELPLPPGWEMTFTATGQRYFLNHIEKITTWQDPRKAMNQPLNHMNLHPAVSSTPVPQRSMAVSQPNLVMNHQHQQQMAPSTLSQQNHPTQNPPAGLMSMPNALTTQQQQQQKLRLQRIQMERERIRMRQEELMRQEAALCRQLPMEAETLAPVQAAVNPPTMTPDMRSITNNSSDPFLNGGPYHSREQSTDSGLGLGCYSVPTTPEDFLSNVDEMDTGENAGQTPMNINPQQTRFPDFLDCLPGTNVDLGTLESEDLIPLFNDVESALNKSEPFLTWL

For two molecules, binding results are on record in article PMC12041353.

For assay [1], the target named is HA-TAZ (transcriptional coactivator with PDZ-binding motif) (human) (UniProt Q9GZV5). Nature of the assay: co-IP; HEK293T cells transfected with TAZ and NRF2 plasmids (full length or domain-deleted); lysate in IP buffer incubated overnight at 4 °C with Flag magnetic beads and specific antibodies; western blot.
In assay [2] the target is TAZ (transcriptional coactivator with PDZ-binding motif), endogenous (human (endogenous in T24)) (UniProt Q9GZV5). Nature of the assay: co-IP; endogenous TAZ and NRF2 in T24 cells; western blot.

B1: Flag-NRF2 (nuclear factor erythroid 2-related factor 2) (protein, UniProt Q16236 1-605)
chain: MMDLELPPPGLPSQQDMDLIDILWRQDIDLGVSREVFDFSQRRKEYELEKQKKLEKERQEQLQKEQEKAFFAQLQLDEETGEFLPIQPAQHIQSETSGSANYSQVAHIPKSDALYFDDCMQLLAQTFPFVDDNEVSSATFQSLVPDIPGHIESPVFIATNQAQSPETSVAQVAPVDLDGMQQDIEQVWEELLSIPELQCLNIENDKLVETTMVPSPEAKLTEVDNYHFYSSIPSMEKEVGNCSPHFLNAFEDSFSSILSTEDPNQLTVNSLNSDATVNTDFGDEFYSAFIAEPSISNSMPSPATLSHSLSELLNGPIDVSDLSLCKAFNQNHPESTAEFNDSDSGISLNTSPSVASPEHSVESSSYGDTLLGLSDSEVEELDSAPGSVKQNGPKTPVHSSGDMVQPLSPSQGQSTHVHDAQCENTPEKELPVSPGHRKTPFTKDKHSSRLEAHLTRDELRAKALHIPFPVEKIINLPVVDFNEMMSKEQFNEAQLALIRDIRRRGKNKVAAQNCRKRKLENIVELEQDLDHLKDEKEKLLKEKGENDKSLHLLKKQLSTLYLEVFSMLRDEDGKPYSPSEYSLQQTRDGNVFLVPKSKKPDVKKN
Take B1: the binding entry in assay [1] is recorded as “binds”.

B2: NRF2 (nuclear factor erythroid 2-related factor 2), endogenous (protein, UniProt Q16236 1-605)
chain: B1 chain
For B2, the binding entry in assay [2] is reported as “binds”.
